The supplement of paper PMC8616043
Counter-ions that a name gives are not always drawn. The list shows a part of the results. Repeats in this data set agree poorly, so a single value says little.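 Human U-2 OS cells stably expressing a GFP sensor with a nuclear import signal and classical export signal were transfected to produce PR50, a 50-repeat proline–arginine dipeptide from ALS/FTD gene C9ORF72. Nuclear-minus-cytoplasm GFP was scaled from DMSO (low) to PR-only (high), scored against plate test wells; strongly negative scores marked PR-reversing hits.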

System: U-2 OS NCT-C biosensor cells expressing PR50
Test: Z-score of normalised NCT-C biosensor translocation index in PR50-expressing cells; higher = more nuclear biosensor (more disrupted nuclear export)
Details: 3 µM; 24 h

Row | Compound | Z-score
1 | N=C1CCCN1Cc1[nH]c(=O)[nH]c(=O)c1Cl [Tipiracil hydrochloride] | inactive: -0.427
2 | C[C@@H](NCCCc1cccc(C(F)(F)F)c1)c1cccc2ccccc12 [Cinacalcet·HCl] | inactive: 0.468
3 | CC[N+](C)(C)c1cccc(O)c1 [Edrophonium chloride] | inactive: 0.244
4 | NCCc1c[nH]cn1 [Histamine dihydrochloride] | inactive: 0.321
5 | OC(Cn1cncn1)(Cn1cncn1)c1ccc(F)cc1F [Fluconazole] | inactive: 0.916
6 | C#CC(N)CCC(=O)O (stereo not given) [gamma-Acetylinic GABA] | inactive: -0.0868
7 | COc1cc([C@@H]2CC(=O)c3c(O)cc(O)cc3O2)ccc1O [Homoeriodictyol] | inactive: -0.318
8 | N=C(NC(=O)c1nc(Cl)c(N)nc1N)Nc1ccccc1 [Phenamil methanesulfonate] | inactive: -0.84
9 | O=C1C[C@@H](c2ccccc2)Oc2cc(O)cc(O)c21 [Pinocembrin] | inactive: -0.301
10 | COc1cc(C(=O)OCCCN2CCCN(CCCOC(=O)c3cc(OC)c(OC)c(OC)c3)CC2)cc(OC)c1OC [Dilazep Dihydrochloride] | inactive: -1.25
11 | O=C1NC(=O)c2c1c(-c1ccccc1)cc1[nH]c3ccc(O)cc3c21 | inactive: 0.0316
12 | CCN(CC)CCOC(=O)C1(C2CCCCC2)CCCCC1 [Dicyclomine·HCl] | inactive: -0.0536
13 | CCN(CC)CCOC(=O)C1(C2CCCCC2)CCCCC1 [Dicyclomine hydrochloride] | inactive: -0.367
14 | O=c1cc(-c2ccccc2)oc2c(O)c(O)ccc12 [7,8-  Dihydroxyflavone hydrate] | inactive: -0.198
15 | CCCc1cc(C)[nH]c(=O)c1CNC(=O)c1cc(-c2ccc(N3CCN(C(C)C)CC3)nc2)cc2c1cnn2C(C)C | active: -3.17
16 | CC(N/C(=N\C#N)Nc1ccncc1)C(C)(C)C (stereo not given) [Pinacidil] | inactive: 0.53
17 | C[N+]1(C)CCC(OC(=O)C(c2ccccc2)c2ccccc2)CC1 [4-DAMP  methiodide] | inactive: 1.8
18 | C[N+]1(C)CCC(OC(=O)C(c2ccccc2)c2ccccc2)CC1 | inactive: -0.189
19 | COc1cc(C(=O)O[C@H]2C[C@@H]3CC[C@]2(C)C3(C)C)ccc1O [Tschimganine] | inactive: -0.188
20 | CC(=O)Oc1ccccc1C(=O)Nc1ncc([N+](=O)[O-])s1 [Nitazoxanide] | inactive: -0.725
21 | Cc1[nH]ccc2c1[nH]c1cc(=O)ccc12 [Harmol·HCl·2H2O] | inactive: 0.248
22 | CCCCCCCCCC(=O)NC(CN1CCOCC1)C(C)c1ccccc1 (racemic) | inactive: 0.307
23 | CCc1ccccc1OC[C@@H](O)CN[C@H]1CCCc2ccccc21 | inactive: -0.128
24 | N=C(NCCCCCCNC(=N)NC(=N)Nc1ccc(Cl)cc1)NC(=N)Nc1ccc(Cl)cc1 [Chlorhexidine Dihydrochloride] | inactive: 0.271

From no. 3 up to 6, as listed above:
Row | Compound | Z-score
3 | CC[N+](C)(C)c1cccc(O)c1 [Edrophonium chloride] | inactive: 0.244
4 | NCCc1c[nH]cn1 [Histamine dihydrochloride] | inactive: 0.321
5 | OC(Cn1cncn1)(Cn1cncn1)c1ccc(F)cc1F [Fluconazole] | inactive: 0.916
6 | C#CC(N)CCC(=O)O (stereo not given) [gamma-Acetylinic GABA] | inactive: -0.0868

Next records.

Row | Compound | Z-score
25 | CN1CCN(C2=Nc3ccccc3Oc3ccc(Cl)cc32)CC1 [Loxapine succinate] | inactive: -0.246
26 | CN1CCN(C2=Nc3ccccc3Oc3ccc(Cl)cc32)CC1 [Loxapine Succinate] | inactive: -1.05
27 | CN(C)C(=O)Nc1cccc(-c2ccc(N(C)C)cc2)c1 [Atglistatin] | inactive: 0.893
28 | Clc1ccc(CCC(Cn2ccnc2)Sc2c(Cl)cccc2Cl)cc1 (stereo not given) [Butoconazole Nitrate] | inactive: 0.51
29 | N#Cc1ccc(C(c2ccc(C#N)cc2)n2cncn2)cc1 [Letrozole] | inactive: -0.548
30 | COC1=C[C@@H](C)[C@@H]2C[C@H]3OC(=O)C[C@H]4C(C)=C(OC)C(=O)[C@H]([C@@]2(C)C1=O)[C@@]34C [Quassin] | inactive: -0.618
31 | C[N+]1(C)CCC(OC(=O)C(O)(c2ccccc2)C2CCCC2)C1 (stereo not given) [Glycopyrrolate Iodide] | inactive: -0.318
32 | C[C@@H]1C[C@H]2O[C@@H]2/C=C\C=C\C(=O)Cc2c(Cl)c(O)cc(O)c2C(=O)O1 [Radicicol] | inactive: -1.31
33 | Cc1nnc(C(=O)NC(C)(C)c2nc(C(=O)NCc3ccc(F)cc3)c(O)c(=O)n2C)o1 [Raltegravir potassium] | inactive: -0.529
34 | CC(=O)/C=C1/C(=O)N(C)c2ccccc21 [Supercinnamaldehyde] | inactive: 4
35 | Cc1cc(CN2CCN(c3c(Br)cnc4nc(-c5ccc(N6CCN(C)CC6)cc5)[nH]c34)CC2)no1 | inactive: 0.0302
36 | Cc1ccc(=O)n(-c2ccccc2)c1 [Pirfenidone] | inactive: -0.0797
37 | O=C(Nc1ccncc1)c1cc([N+](=O)[O-])ccc1Cl | inactive: -0.232
38 | Cc1cc(NC(=O)Nc2ccc3c(ccn3C)c2)sn1 | inactive: -0.417
39 | N#Cc1cc2nc(O)c(O)nc2cc1[N+](=O)[O-] [CNQX disodium] | inactive: 0.0822
40 | C[C@@H](CN1CCC(Cc2ccccc2)CC1)[C@@H](O)c1ccc(O)cc1 [Ro 25-6981  hydrochloride] | inactive: -0.994
41 | N[C@@H](CS(=O)O)C(=O)O [L-Cysteinesulfinic Acid] | inactive: -0.0364
42 | C[N+](C)(C)CC(=O)O [Betaine hydrochloride] | inactive: 1.85
43 | C[N+](C)(C)CC(=O)O [Betaine] | inactive: -0.12
44 | Cc1nc(C(=O)N2CCC[C@H]2Cc2nnc(-c3ccccc3)o2)c(-c2ccccc2F)s1 | inactive: -0.0819
45 | CC[C@H](CO)Nc1nc(NCc2ccccc2)c2ncn(C(C)C)c2n1 [Roscovitine] | inactive: 0.25
46 | OCCN(CCO)c1nc(N2CCCCC2)c2nc(N(CCO)CCO)nc(N3CCCCC3)c2n1 [Dipyridamole] | inactive: 0.526
47 | COC(=O)[C@@H]1CC2=CC(=O)CC[C@]2(C)[C@@]23O[C@@H]2C[C@@]2(C)[C@@H](CC[C@@]24CCC(=O)O4)[C@H]13 [Eplerenone] | inactive: 0.209
48 | NO [Hydroxylamine hydrochloride] | inactive: 0.017

Row | Compound | Z-score
49 | Nc1nc(Cl)nc2c1ncn2[C@@H]1O[C@H](CO)[C@@H](O)[C@H]1O [2-Chloroadenosine] | inactive: -0.55
50 | Nc1cc(Cl)c(NC2=NCCN2)c(Cl)c1 [p-Aminoclonidine hydrochloride] | inactive: -0.0834
51 | CNC(=O)c1cc(Oc2ccc(NC(=O)Nc3ccc(Cl)c(C(F)(F)F)c3)cc2)ccn1 [Sorafenib Tosylate] | inactive: -0.795
52 | COc1cccc2c1C(=O)c1c(O)c3c(c(O)c1C2=O)C[C@@](O)(C(C)=O)C[C@@H]3O[C@H]1C[C@H](N)[C@H](O)[C@H](C)O1 [Daunorubicin] | inactive: -0.45
53 | O=C(Nc1cccc(C(=O)Nc2ccc(S(=O)(=O)O)c3cc(S(=O)(=O)O)cc(S(=O)(=O)O)c23)c1)Nc1cccc(C(=O)Nc2ccc(S(=O)(=O)O)c3cc(S(=O)(=O)O)cc(S(=O)(=O)O)c23)c1 | inactive: -0.319
54 | COc1cc(-c2oc3cc(O)cc(O)c3c(=O)c2O)ccc1O [Isorhamnetine] | inactive: 0.806
55 | Cc1cn([C@H]2C=C[C@@H](CO)O2)c(=O)[nH]c1=O [Stavudine] | inactive: 0.109
56 | C=C1CC[C@@H]2[C@](C)(CO)[C@H](O)CC[C@@]2(C)[C@@H]1C/C=C1/C(=O)OC[C@H]1O [Andrographolide] | inactive: 0.4
57 | CCCCCCCCCCCCC/C=C/[C@@H](O)[C@H](CO)NC(=O)CCCCC [C6 Ceramide] | inactive: -0.224
58 | Nc1ncnc2c1nc(Br)n2C1OC2COP(=O)(O)O[C@@H]2C1O (stereo not given in full) [8-Bromo-cAMP sodium] | inactive: 3.16
59 | CN1C(CCl)Nc2cc(Cl)c(S(N)(=O)=O)cc2S1(=O)=O (stereo not given) [Methyclothiazide] | inactive: -0.498
60 | C=CC1=C(C(=O)O)N2C(=O)[C@@H](NC(=O)/C(=N\O)c3csc(N)n3)[C@H]2SC1 [Cefdinir] | inactive: -0.309
61 | CC(C)C(=O)SCCCCC[C@H](NC(=O)OC(C)(C)C)C(=O)NC12CC3CC(CC(C3)C1)C2 | inactive: -1.14
62 | c1ccc2c(CC3=NCCN3)cccc2c1 [Naphazoline hydrochloride] | inactive: -0.726
63 | c1ccc2c(CC3=NCCN3)cccc2c1 [Naphazoline·HCl] | inactive: 0.266
64 | CC(=O)OCC(=O)[C@@]12OC(C)(C)O[C@@H]1C[C@H]1[C@@H]3C[C@H](F)C4=CC(=O)C=C[C@]4(C)[C@@]3(F)[C@@H](O)C[C@@]12C [Fluocinonide] | inactive: 0.47
65 | CCN(CC)CC(=O)Nc1c(C)cccc1C [Lidocaine hydrochloride] | inactive: -0.564
66 | CCN(CC)CC(=O)Nc1c(C)cccc1C [Lidocaine·HCl·H2O] | inactive: -1.14
67 | NS(=O)(=O)c1cc2c(cc1Cl)NC(C1CC3C=CC1C3)NS2(=O)=O (stereo not given) [Cyclothiazide] | inactive: -0.137
68 | S=C(S)N1CCCC1 [Ammonium pyrrolidine dithiocarbamate] | inactive: -0.129
69 | CSC(=N)NCCC[C@H](N)C(=O)O [S-Methyl-L- thiocitrulline acetate] | inactive: 0.356
70 | C[C@@H]1O[C@@H](O[C@H]2[C@H](Oc3cc(O)c4c(=O)c(O)c(-c5ccc(O)cc5)oc4c3)O[C@H](CO)[C@@H](O)[C@@H]2O)[C@H](O)[C@H](O)[C@H]1O [Kaempferol-7-neohesperidoside] | inactive: -0.427
